According to the supplement of paper PMC9254222:
In all, about 1,100 compounds were measured (“Wnt reporter firefly/Renilla luciferase ratio relative to plate median”: median about 1.1, highest 2% from about 1.6 on). The list shows a part of the results, in another mix than the full data.

Tested on: HEK293T (UBE3A T485A transfected, BAR Wnt reporter)
Assay: Wnt reporter firefly/Renilla luciferase ratio relative to plate median (fold (linear ratio)); higher = more Wnt/beta-catenin reporter activation
Details: 24 h
How it was run: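 Chemicals at 0.01–100 uM were left on transfected HEK293T cells for 24 h, after a four-hour wait following transfection. The cells held a BAR firefly luciferase Wnt reporter, TK-Renilla and an expression plasmid. Wnt activity, as the firefly/Renilla ratio from a Dual-Glo luciferase readout, and cell health, as raw Renilla, were median-centred within each plate. Results average four biological replicates.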

SMILES | Wnt reporter firefly/Renilla luciferase ratio (concentration: 0.1 uM) | Wnt reporter firefly/Renilla luciferase ratio (concentration: 1 uM) | Wnt reporter firefly/Renilla luciferase ratio (concentration: 10 uM) | Wnt reporter firefly/Renilla luciferase ratio (concentration: 100 uM) | Wnt reporter firefly/Renilla luciferase ratio (concentration: 0.01 uM)
C[N+](C)(C)CC1CO1.[Cl-] (stereo not drawn) [N,N,N-Trimethyl(oxiran-2-yl)methanaminium chloride] | 1.01 | 0.868 | 0.986 | 1.09 | 
O=C1c2ccccc2C(=O)N1SC(Cl)(Cl)Cl [Folpet] | 1.49 | 1.05 | 1.32 |  | 1.22
COC(=O)c1ccccc1N [Methyl 2-aminobenzoate] | 1.23 | 1.02 | 1.1 | 1.31 | 
Clc1ccc(C(c2ccc(Cl)cc2)C(Cl)Cl)cc1 | 0.983 | 0.999 | 0.984 | 1.16 | 
COc1nc(NC(C)C)nc(NC(C)C)n1 [Prometon] | 0.926 | 0.714 | 0.868 | 0.852 | 0.425
O=C(Nc1ccccc1)c1ccccc1I [Benodanil] | 1.01 | 0.967 | 1.06 | 0.746 | 
CC(C)N(Cc1ccccc1)C(=O)C(C)(C)C [Butam] | 1.15 | 0.958 | 1.06 | 0.891 | 
ClC1=C(Cl)C(Cl)(Cl)C(Cl)=C1Cl [Hexachlorocyclopentadiene] | 1.24 | 0.958 | 1.02 | 0.638 | 
Cc1cccc(N)c1 [3-Methylaniline] | 0.716 | 0.904 | 0.784 | 1.19 | 
CCOP(=S)(Oc1cnc(C(C)(C)C)nc1)OC(C)C (stereo not drawn) [Tebupirimfos] | 0.858 | 1.02 | 0.965 | 1.03 | 0.786
COCc1cnc(C2=NC(C)(C(C)C)C(=O)N2)c(C(=O)O)c1 (stereo not drawn) [Imazamox] | 1.07 | 0.743 | 1.21 | 1.14 | 1.07
CCOP(=S)(OCC)Oc1ccc([N+](=O)[O-])cc1 [Parathion] | 1.45 | 1.28 | 1.44 | 1.3 | 1.18
N#Cc1c(Cl)cccc1Cl [Dichlobenil] | 1.42 | 1.16 | 0.907 | 1.29 | 1.31
OCCN(CCO)CCO [Triethanolamine] | 1.25 | 1.19 | 1.02 | 0.749 | 
CC(C)NC(=O)N1CC(=O)N(c2cc(Cl)cc(Cl)c2)C1=O [Iprodione] | 1.33 | 1.06 | 1.06 | 0.922 | 1.18
CCCCOC(=O)[C@@H](C)Oc1ccc(Oc2ccc(C#N)cc2F)cc1 [Cyhalofop-butyl] | 0.959 | 1.06 | 0.848 | 0.697 | 1.1
CC1(C)C(C(=O)OC(C#N)c2cccc(Oc3ccccc3)c2)C1(C)C (stereo not drawn) [Fenpropathrin] | 1.23 | 1.04 | 1.04 | 0.149 | 1.05
CCOP(=S)(OCC)SCCSCC [Disulfoton] | 1.2 | 1.3 | 1.19 | 1.43 | 1.38
CN/C(=N\[N+](=O)[O-])NCc1cnc(Cl)s1 [Clothianidin] | 1.2 | 0.922 | 0.951 | 1.07 | 1.34
CC(C)(C)C(=O)C(Oc1ccc(Cl)cc1)n1cncn1 (stereo not drawn) [Triadimefon] | 1.34 | 1.3 | 1.2 | 0.483 | 1
Oc1c(Cl)cc(Cl)cc1Cl [2,4,6-Trichlorophenol] | 0.821 | 1.09 | 1.37 | 0.524 | 

As a short view, part of the list above:
SMILES | Wnt reporter firefly/Renilla luciferase ratio (concentration: 0.1 uM) | Wnt reporter firefly/Renilla luciferase ratio (concentration: 1 uM) | Wnt reporter firefly/Renilla luciferase ratio (concentration: 10 uM) | Wnt reporter firefly/Renilla luciferase ratio (concentration: 100 uM) | Wnt reporter firefly/Renilla luciferase ratio (concentration: 0.01 uM)
ClC1=C(Cl)C(Cl)(Cl)C(Cl)=C1Cl [Hexachlorocyclopentadiene] | 1.24 | 0.958 | 1.02 | 0.638 | 
Cc1cccc(N)c1 [3-Methylaniline] | 0.716 | 0.904 | 0.784 | 1.19 | 
CCOP(=S)(Oc1cnc(C(C)(C)C)nc1)OC(C)C (stereo not drawn) [Tebupirimfos] | 0.858 | 1.02 | 0.965 | 1.03 | 0.786
COCc1cnc(C2=NC(C)(C(C)C)C(=O)N2)c(C(=O)O)c1 (stereo not drawn) [Imazamox] | 1.07 | 0.743 | 1.21 | 1.14 | 1.07

(more compounds)

SMILES | Wnt reporter firefly/Renilla luciferase ratio (concentration: 0.1 uM) | Wnt reporter firefly/Renilla luciferase ratio (concentration: 1 uM) | Wnt reporter firefly/Renilla luciferase ratio (concentration: 10 uM) | Wnt reporter firefly/Renilla luciferase ratio (concentration: 100 uM) | Wnt reporter firefly/Renilla luciferase ratio (concentration: 0.01 uM)
O=C(O)C(F)(F)C(F)(F)C(F)(F)C(F)(F)C(F)(F)F | 1.16 | 1.48 | 1.38 | 2.14 | 
CO[C@@H]1[C@H](OC(=O)NC(=O)CCl)CC[C@]2(CO2)[C@H]1[C@@]1(C)O[C@@H]1CC=C(C)C | 0.85 | 0.74 | 0.545 | 0.281 | 
OC(c1ccc(Cl)cc1)(c1cncnc1)c1ccccc1Cl (stereo not drawn) [Fenarimol] | 0.819 | 1.18 | 1.13 | 0.347 | 0.885
COP(=O)(OC)SCn1c(=O)oc2cc(Cl)cnc21 [Azamethiphos] | 1.28 | 0.979 | 0.625 | 0.373 | 0.825
Cc1cc(C)nc(Nc2ccccc2)n1 [Pyrimethanil] | 0.979 | 0.894 | 1.13 | 1.14 | 0.991
CCN(CC)C(=O)C(C)Oc1cccc2ccccc12 (stereo not drawn) [Napropamide] | 1.3 | 0.968 | 0.96 | 0.438 | 1.25
O=S(=O)([O-])C(F)(F)C(F)(F)C(F)(F)C(F)(F)F.[K+] | 1.15 | 1.04 | 1.23 | 1.73 | 
COP(=O)(OC)OC(Br)C(Cl)(Cl)Br (stereo not drawn) [Naled] | 0.717 | 0.934 | 0.744 |  | 0.688
CC(C)N1C(=O)N(c2ccccc2)CSC1=NC(C)(C)C [Buprofezin] | 1.69 | 1.16 | 1.12 | 0.27 | 1.25
CC(C)(C)OOC(C)(C)CCC(C)(C)OOC(C)(C)C [2,5-Dimethyl-2,5-di-(tert-butylperoxy)hexane] | 1.05 | 0.821 | 1.06 | 1.31 | 
CC(C)=CC1C(C(=O)OCc2coc(Cc3ccccc3)c2)C1(C)C (stereo not drawn) [Resmethrin] | 1.07 | 1.19 | 1.16 | 0.31 | 1.06
CCOC(=O)C(O)(c1ccc(Cl)cc1)c1ccc(Cl)cc1 [Chlorobenzilate] | 1.14 | 1.09 | 1.05 | 1.09 | 
COC(=O)NC(=S)Nc1ccccc1NC(=S)NC(=O)OC [Thiophanate-methyl] | 1.42 | 1.19 | 1.34 | 0.693 | 1.2
CCCCN(CC)c1c([N+](=O)[O-])cc(C(F)(F)F)cc1[N+](=O)[O-] [Benfluralin] | 1.31 | 0.932 | 1.08 | 1.13 | 0.944
O=C1C2(Cl)C3(Cl)C4(Cl)C(Cl)(Cl)C5(Cl)C3(Cl)C1(Cl)C5(Cl)C24Cl (stereo not drawn) [Kepone] | 1.34 | 1.09 | 0.965 | 1.01 | 
CC(Oc1ccc(Cl)cc1Cl)C(=O)O (stereo not drawn) [Dichlorprop] | 1.21 | 1.22 | 1.24 | 1.32 | 1.16
CCNc1nc(Cl)nc(NC(C)(C)C#N)n1 [Cyanazine] | 0.905 | 0.962 | 0.88 | 1.15 | 0.787
O=C(O)COc1ccc(Cl)cc1Cl [2,4-Dichlorophenoxyacetic acid] | 1.37 | 1.1 | 1.22 | 1.12 | 0.912
O=C([O-])C(F)(F)C(F)(F)C(F)(F)C(F)(F)C(F)(F)C(F)(F)C(F)(F)F.[NH4+] [PFOA, ammonium salt] | 1.07 | 0.855 | 1.06 | 0.439 | 
Cc1ccc(N)cc1 [4-Methylaniline] |  |  |  | 1.79 | 
CC1(C(=O)Nc2ccc(O)c(Cl)c2Cl)CCCCC1 [Fenhexamid] | 1.11 | 1.06 | 1.23 | 0.352 | 0.803

SMILES | Wnt reporter firefly/Renilla luciferase ratio (concentration: 0.1 uM) | Wnt reporter firefly/Renilla luciferase ratio (concentration: 1 uM) | Wnt reporter firefly/Renilla luciferase ratio (concentration: 10 uM) | Wnt reporter firefly/Renilla luciferase ratio (concentration: 100 uM) | Wnt reporter firefly/Renilla luciferase ratio (concentration: 0.01 uM)
COc1ccccc1N [2-Anisidine] | 1.26 | 1.2 | 1.42 | 1.19 | 
O=C(NC(=O)c1c(F)cccc1F)Nc1ccc(OC(F)(F)C(F)OC(F)(F)F)c(Cl)c1 (stereo not drawn) [Novaluron] | 0.973 | 1.04 | 1.02 | 0.941 | 1.04
O=P(Oc1ccccc1)(Oc1ccccc1)Oc1ccccc1 [Triphenyl phosphate] | 1.21 | 1.17 | 1.2 | 1.06 | 
CCCCCCCCOC(=O)c1ccc(C(=O)OCCCCCCCC)c(C(=O)OCCCCCCCC)c1 [Trioctyl trimellitate] | 1.11 | 1.01 | 1.06 | 1.57 | 
CCCCN(CCCC)SN(C)C(=O)Oc1cccc2c1OC(C)(C)C2 [Carbosulfan] | 1.07 | 1.13 | 1.07 | 1.28 | 
N#CC(Br)Br [Dibromoacetonitrile] | 1.15 | 1.01 | 1.17 | 1.19 | 
CCOP(=O)(SC(C)CC)N1CCSC1=O (stereo not drawn) [Fosthiazate] | 0.761 | 0.922 | 1.5 | 0.772 | 0.839
CCSC(=O)N1CCCCCC1 [Molinate] | 1.49 | 1.13 | 0.973 | 1.18 | 1.29
CC(C)(C)C(O)C(Oc1ccc(Cl)cc1)n1cncn1 (stereo not drawn) [Triadimenol] | 1.01 | 1.09 | 0.935 | 0.403 | 0.889
CC(C)[C@H](C(=O)O[C@H](C#N)c1cccc(Oc2ccccc2)c1)c1ccc(Cl)cc1 [Esfenvalerate] | 0.96 | 1.13 | 1.12 | 0.54 | 1.08
CS(=O)(=O)NC(=O)c1cc(Oc2ccc(C(F)(F)F)cc2Cl)ccc1[N+](=O)[O-] [Fomesafen] | 1.07 | 1.19 | 1.15 | 0.896 | 
Clc1ccccc1Cl [1,2-Dichlorobenzene] | 0.904 | 1.01 | 0.88 | 1.62 | 
COc1cc(Cl)c(OC)cc1Cl [Chloroneb] | 1.33 | 1.12 | 1.01 | 1.54 | 0.936
COc1cc(OC)nc(Sc2cccc(Cl)c2C(=O)[O-])n1.[Na+] [Pyrithiobac-sodium] | 1.11 | 1.11 | 1.25 | 1.32 | 1.46
CC#Cc1cc(C)nc(Nc2ccccc2)n1 [Mepanipyrim] | 1.04 | 1.06 | 1.12 | 0.702 | 
CCOC(=O)CC(SP(=O)(OC)OC)C(=O)OCC (stereo not drawn) [Malaoxon] | 0.981 | 1.07 | 1.22 | 1.22 | 1.22
CC(C)(C)c1ccc(CSc2cnn(C(C)(C)C)c(=O)c2Cl)cc1 [Pyridaben] | 0.978 | 0.29 | 0.305 | 0.218 | 1.21
O=[N+]([O-])c1ccc(Oc2ccc(Cl)cc2Cl)cc1 [Nitrofen] | 1.04 | 0.882 | 1.01 | 1.28 | 
Cc1cc(O)ccc1Cl [4-Chloro-3-methylphenol] | 0.988 | 0.799 | 0.778 | 0.698 | 
CCOP(=S)(OCC)OC(Cl)C(Cl)(Cl)Cl (stereo not drawn) [Chlorethoxyfos] | 1.35 | 1.17 | 1.02 | 1.11 | 1.08
